Some of the results follow. Shown are side measurements of this screen, not its main read-out; they come without a call. The list favours compounds with an active or inconclusive main result. Words in brackets tell the shape of the fitted curve; partial curves, single points and poor fits give uncertain potencies.
Test: Cell signaling CRE-BLA (Fsk stim)
Conditions: CHO CRE-bla reporter (cAMP response element driving beta-lactamase), forskolin EC10, beta-lactamase ratio; measured here: 460 nm blue channel
Method in brief: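 CHO CRE-bla cells, overnight plating in Opti-MEM with 0.5% dialyzed FBS; cpd titration + EC10 NKH 477, 3 h 37 °C; CCF4 2 h RT; ex 405/em 460 vs 530 ratio → %Activity, AC50.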

| SMILES | AC50 |
| --- | --- |
| CN(C)c1ccc(-c2nc(N(C)Cc3ccco3)c3ccccc3n2)cc1 | 12.6 µM [rising, partial curve] |
| O=C1CSC(c2cccc(F)c2)N1c1ccccc1F (centres undefined) | 0.00794 µM [falling, full curve, poor fit] |
| Cn1ccnc1C[C@@](C)(O)c1ccccc1 | 0.158 µM [rising, partial curve] |
| Cc1nc(Nc2ccc3c(c2)OCCO3)c2oc3ccccc3c2n1 | 3.16 µM [rising, partial curve] |
| COc1cccc(-n2nnc3c(=O)n(CC(=O)N4CCC(C)CC4)cnc32)c1 | 0.0251 µM [falling, full curve, poor fit] |
| O=C(CSc1nnc2scc(-c3ccccc3)n12)N1CCN(Cc2ccccc2)CC1 | 10 µM [rising, partial curve] |
| Cn1c(=O)[nH]c(=O)c2c1nc(N1CCOCC1)n2CCCSc1ncccn1 | 25.1 µM [rising, single point] |
| COc1ccc(-c2nc3cncnc3n(-c3ccccc3)c2=O)cc1 | 3.16 µM [rising, full curve] |
| O=C(CCN1C(=O)c2ccccc2C1=O)OCn1nnc2ccccc2c1=O | 0.0631 µM [falling, full curve] |
| O=C(Nc1nc(-c2cc3ccccc3oc2=O)cs1)c1ccco1 | 12.6 µM [rising, partial curve] |
| CC(=O)N1CCc2cc(S(=O)(=O)CCC(=O)O)ccc21 | 0.0316 µM [falling, partial curve, poor fit] |
| COc1ccc(C2NC(=O)NC(O)(C(F)(F)F)C2C(=O)c2ccc(C)cc2)cc1 (centres undefined) | 0.398 µM [rising, partial curve] |
| O=C1c2cccc3c(Cl)ccc(c23)C(=O)N1O | 12.6 µM [rising, single point] |
| Cn1cnc2c1c(=O)n(Cc1ccc(F)cc1Cl)c(=O)n2C | 12.6 µM [rising, single point] |
| COc1ccc(-n2c(=O)c3ccccc3n(CC(=O)NC3CCCC3)c2=O)cc1 | 0.501 µM [falling, partial curve] |
| COc1nc(NCCc2ccc(OC)c(OC)c2)nc(NC(C)(C)CO)n1 | 12.6 µM [rising, partial curve] |
| COCCn1c(=O)cnc2cnc(Oc3ccc(OC)cc3)nc21 | 25.1 µM [rising, single point] |
| Cc1cccc(OCCCCc2c(C)n[nH]c2C)c1C | 12.6 µM [falling, single point] |
| CCc1nc(N)c(C#N)c(-c2ccco2)c1C | 5.01 µM [rising, partial curve] |
| COc1cccc(Cn2c(=O)c(-c3cccs3)nc3cnc(Nc4ccccc4)nc32)c1 | 0.316 µM [rising, full curve] |
| Cc1cc(Cl)c(S(=O)(=O)N2CCCCCC2)cc1OCC(N)=O | 0.0158 µM [falling, full curve, poor fit] |
| C=CCn1c(SCC(=O)NCC2CCCO2)nnc1C1CCCCC1 (centres undefined) | 0.501 µM [falling, single point] |
| COc1cccc(-c2nc(C(N)=O)c3[nH]c(=O)n(-c4cccc(Cl)c4)c3n2)c1OC | 10 µM [rising, partial curve] |

| SMILES | AC50 |
| --- | --- |
| COc1ccc(N(C(=O)c2ccco2)S(=O)(=O)c2cccs2)cc1 | 12.6 µM [rising, partial curve] |
| CC(C)(C)/C(O)=C(/C#N)c1nc2ccccc2[nH]1 | 10 µM [rising, single point] |
| CS(=O)(=O)NCC(c1cccnc1)N1CCN(c2ccc(F)cc2)CC1 (centres undefined) | 31.6 µM [falling, single point] |
| CN(C)c1nc(N)nc(CSc2nnnn2-c2cccc3ccccc23)n1 | 7.94 µM [rising, partial curve] |
| CC1CC(C)CN(CCCNC(=O)CNC(=O)Cn2ccc3ccccc3c2=O)C1 (centres undefined) | 0.0794 µM [falling, full curve] |
| COc1c2occc2c(OC)c2c(=O)cc(C)oc12 | 7.94 µM [rising, partial curve] |
| Cn1c(C(=O)NCCCN2CCOCC2)cc2c(=O)n(C)c3ccccc3c21 | 10 µM [rising, partial curve] |
| CNc1ncnc2ccc(-c3ccccc3OC)cc12 | 10 µM [rising, partial curve] |
| CC(=O)c1c(C)nn(C(=O)c2cccs2)c1C | 7.94 µM [falling, partial curve] |
| CCn1c(CCNC(=O)c2ccc(OC)c(OC)c2)nc2ccccc21 | 12.6 µM [rising, partial curve] |
| COc1ccc2c(CCNC(=O)c3ccco3)c[nH]c2c1 | 0.631 µM [falling, partial curve] |
| COc1cc(C(=O)N2CCN(c3cccc(C)c3C)CC2)cc(OC)c1OC | 10 µM [rising, partial curve] |
| COc1ccc(S(=O)(=O)CCC(=O)N2CC(=O)N(CCc3ccccc3)C(=O)C2)cc1 | 0.00631 µM [falling, full curve] |
| COc1cccc(Cn2c(=O)cnc3cnc(OCc4ccccc4)nc32)c1 | 12.6 µM [rising, partial curve] |
| CCN(CC)CCNCc1ccc(-c2ccc(Cl)cc2)o1 | 12.6 µM [rising, partial curve] |
| Cn1nc(-c2ccc(C(=O)NCC3CCCO3)cc2)c2ccccc2c1=O (centres undefined) | 12.6 µM [rising, partial curve] |
| Cc1ccccc1CN1C2=NCCN2C(=O)C2=C1CCN(Cc1ccccc1)C2 | 5.01 µM [rising, single point] |
| O=C(CCN1CCOCC1)Nc1cccc(Br)c1 | 10 µM [falling, partial curve] |
| CCOC(=O)c1ccccc1NC(=O)CSc1ncc(C(=O)OCC)c(N)n1 | 3.98 µM [rising, single point] |
| CC1CCCC(C)N1C(=O)COc1ccc(-c2nnco2)cc1 (centres undefined) | 3.98 µM [falling, partial curve] |
| Cc1nc2cc3nc(C)sc3cc2s1 | 12.6 µM [rising, single point] |
| CCOC(=O)c1c(-c2cccs2)csc1NC(=O)COC(=O)c1c(C)noc1C | 3.98 µM [rising, full curve] |
| Fc1ccc(-c2cc3nc(-c4ccccc4)cc(N4CCN(CCN5CCOCC5)CC4)n3n2)cc1 | 10 µM [rising, partial curve] |

Six entries from above, with tabs:
SMILES	AC50
O=C(CSc1nnc2scc(-c3ccccc3)n12)N1CCN(Cc2ccccc2)CC1	10 µM [rising, partial curve]
CC(=O)c1c(C)nn(C(=O)c2cccs2)c1C	7.94 µM [falling, partial curve]
CCN(CC)CCNCc1ccc(-c2ccc(Cl)cc2)o1	12.6 µM [rising, partial curve]
O=C(CCN1CCOCC1)Nc1cccc(Br)c1	10 µM [falling, partial curve]
CCOC(=O)c1ccccc1NC(=O)CSc1ncc(C(=O)OCC)c(N)n1	3.98 µM [rising, single point]
Fc1ccc(-c2cc3nc(-c4ccccc4)cc(N4CCN(CCN5CCOCC5)CC4)n3n2)cc1	10 µM [rising, partial curve]

(further entries)

| SMILES | AC50 |
| --- | --- |
| CCOc1ccc(CN2CCC(=O)NC2=O)cc1 | 1 µM [falling, full curve] |
| Cc1cccc(NC(=O)Cn2cnc3sc(C)c(S(=O)(=O)N4CCC(C)CC4)c3c2=O)n1 | 0.316 µM [falling, full curve, poor fit] |
| Clc1ccccc1-c1nc(-n2ccnc2)c2ccccc2n1 | 7.94 µM [rising, partial curve] |
| CCOc1c(OC)cccc1C1CC(=O)Nc2cc(OC)c(OC)cc21 (centres undefined) | 15.8 µM [rising, partial curve] |
| Cc1cc(C)nc(N2CCCC(C(=O)Nc3nc4ccc(S(C)(=O)=O)cc4s3)C2)n1 (centres undefined) | 12.6 µM [rising, single point] |
| Cc1ccccc1NS(=O)(=O)c1ccc(NC(=O)c2ccco2)cc1 | 12.6 µM [rising, single point] |
| CCOC(=O)c1[nH]c2ccc(OCC)cc2c1NC(=O)CN1CCC2(CC1)OCCO2 | 12.6 µM [rising, partial curve] |
| CN(C)c1ncc2nc(-c3ccc(F)cc3)c(=O)n(C)c2n1 | 3.16 µM [rising, partial curve] |
| COc1ccc(CC(=O)OCc2cc3ccc(C)cc3[nH]c2=O)cc1 | 2.51 µM [falling, full curve] |
| N#Cc1c(-c2ccco2)cc(-c2ccc(F)cc2)nc1N | 12.6 µM [rising, single point] |
| CC(C)C[C@H](N)c1nnc(S(=O)(=O)Cc2ccc(F)cc2)o1 | 6.31 µM [falling, full curve] |
| CC1CCN(c2oc(Cc3cccc4ccccc34)nc2C#N)CC1 | 5.01 µM [rising, partial curve] |
| N#Cc1nc(-c2ccccc2Cl)oc1NCc1ccco1 | 15.8 µM [rising, single point] |
| COc1ccc(-c2nc3cnc(Nc4ccccc4)nc3n(Cc3cccs3)c2=O)cc1 | 12.6 µM [rising, partial curve] |
| COc1cc2c(cc1OC)-c1cc(Nc3ccc4c(c3)OCCO4)nc(=O)n1CC2 | 5.01 µM [rising, partial curve] |
| OC(c1cccc(OCc2ccccc2)c1)c1nnc(-c2ccccc2)o1 (centres undefined) | 3.98 µM [falling, single point] |
| COc1cccc(Cn2c(Oc3cccc(C)c3)nc3c2c(=O)n(C)c(=O)n3C)c1 | 0.126 µM [rising, single point] |
| CCOC(=O)c1oc2ccccc2c1NC(=O)C1CCCCC1 | 2 µM [rising, full curve, poor fit] |
| O=C1CN(C(=O)CCCc2c[nH]c3ccccc23)c2ccccc2N1 | 12.6 µM [rising, partial curve] |
| CCOC(=O)CSc1nnc(CNC(=O)c2cccs2)n1-c1cc(OC)ccc1OC | 0.0794 µM [falling, full curve] |
| O=C(CN1CCCCC1)Nc1cccc(Br)c1 | 3.16 µM [falling, partial curve, poor fit] |
| Oc1ccc(Cl)cc1Cc1cc(Cl)cc(Cc2cc(Cl)ccc2O)c1O | 3.98 µM [falling, single point] |
| CN(C)c1ncc2nc(-c3ccc(Cl)cc3)c(=O)n(Cc3ccc(F)cc3)c2n1 | 2 µM [rising, partial curve] |

Reference: PubChem BioAssay AID662 (National Center for Advancing Translational Sciences (NCATS), 2007)
